Measured values taken from article PMC4976216.

Amino acid sequences for entries named in this document (tags omitted).
UniProt A0A8I3NZ88: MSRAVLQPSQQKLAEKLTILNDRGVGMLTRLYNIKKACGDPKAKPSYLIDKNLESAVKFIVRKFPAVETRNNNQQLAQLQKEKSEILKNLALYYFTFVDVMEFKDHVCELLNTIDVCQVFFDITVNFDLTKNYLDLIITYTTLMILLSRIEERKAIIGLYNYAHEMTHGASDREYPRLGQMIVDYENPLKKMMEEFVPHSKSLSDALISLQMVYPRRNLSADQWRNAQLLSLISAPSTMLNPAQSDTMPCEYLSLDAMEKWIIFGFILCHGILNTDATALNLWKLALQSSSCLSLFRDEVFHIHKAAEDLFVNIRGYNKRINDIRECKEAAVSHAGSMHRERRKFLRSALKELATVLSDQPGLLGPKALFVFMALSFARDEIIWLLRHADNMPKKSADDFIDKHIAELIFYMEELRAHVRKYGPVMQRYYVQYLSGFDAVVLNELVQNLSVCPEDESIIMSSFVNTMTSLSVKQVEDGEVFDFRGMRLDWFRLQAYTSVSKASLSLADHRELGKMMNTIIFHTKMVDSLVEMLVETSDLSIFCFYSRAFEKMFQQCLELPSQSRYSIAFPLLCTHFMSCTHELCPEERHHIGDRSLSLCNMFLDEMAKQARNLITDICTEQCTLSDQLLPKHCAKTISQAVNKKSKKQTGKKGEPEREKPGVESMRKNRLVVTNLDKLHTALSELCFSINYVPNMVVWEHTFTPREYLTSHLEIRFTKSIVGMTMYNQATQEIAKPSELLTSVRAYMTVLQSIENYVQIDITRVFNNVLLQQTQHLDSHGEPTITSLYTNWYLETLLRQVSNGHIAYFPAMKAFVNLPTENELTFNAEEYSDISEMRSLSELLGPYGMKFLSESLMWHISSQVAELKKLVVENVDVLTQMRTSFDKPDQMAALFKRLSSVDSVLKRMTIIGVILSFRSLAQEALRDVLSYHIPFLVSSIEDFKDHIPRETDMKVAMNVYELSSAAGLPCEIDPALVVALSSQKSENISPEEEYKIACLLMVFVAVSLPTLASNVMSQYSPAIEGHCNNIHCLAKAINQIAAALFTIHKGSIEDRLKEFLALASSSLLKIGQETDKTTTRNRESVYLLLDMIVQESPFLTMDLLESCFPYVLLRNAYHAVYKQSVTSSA

Biological target: T1, Cingulin (CGN), endogenous in MDCK cells (canine (endogenous in MDCK)) (UniProt A7YH32)
T1 sequence: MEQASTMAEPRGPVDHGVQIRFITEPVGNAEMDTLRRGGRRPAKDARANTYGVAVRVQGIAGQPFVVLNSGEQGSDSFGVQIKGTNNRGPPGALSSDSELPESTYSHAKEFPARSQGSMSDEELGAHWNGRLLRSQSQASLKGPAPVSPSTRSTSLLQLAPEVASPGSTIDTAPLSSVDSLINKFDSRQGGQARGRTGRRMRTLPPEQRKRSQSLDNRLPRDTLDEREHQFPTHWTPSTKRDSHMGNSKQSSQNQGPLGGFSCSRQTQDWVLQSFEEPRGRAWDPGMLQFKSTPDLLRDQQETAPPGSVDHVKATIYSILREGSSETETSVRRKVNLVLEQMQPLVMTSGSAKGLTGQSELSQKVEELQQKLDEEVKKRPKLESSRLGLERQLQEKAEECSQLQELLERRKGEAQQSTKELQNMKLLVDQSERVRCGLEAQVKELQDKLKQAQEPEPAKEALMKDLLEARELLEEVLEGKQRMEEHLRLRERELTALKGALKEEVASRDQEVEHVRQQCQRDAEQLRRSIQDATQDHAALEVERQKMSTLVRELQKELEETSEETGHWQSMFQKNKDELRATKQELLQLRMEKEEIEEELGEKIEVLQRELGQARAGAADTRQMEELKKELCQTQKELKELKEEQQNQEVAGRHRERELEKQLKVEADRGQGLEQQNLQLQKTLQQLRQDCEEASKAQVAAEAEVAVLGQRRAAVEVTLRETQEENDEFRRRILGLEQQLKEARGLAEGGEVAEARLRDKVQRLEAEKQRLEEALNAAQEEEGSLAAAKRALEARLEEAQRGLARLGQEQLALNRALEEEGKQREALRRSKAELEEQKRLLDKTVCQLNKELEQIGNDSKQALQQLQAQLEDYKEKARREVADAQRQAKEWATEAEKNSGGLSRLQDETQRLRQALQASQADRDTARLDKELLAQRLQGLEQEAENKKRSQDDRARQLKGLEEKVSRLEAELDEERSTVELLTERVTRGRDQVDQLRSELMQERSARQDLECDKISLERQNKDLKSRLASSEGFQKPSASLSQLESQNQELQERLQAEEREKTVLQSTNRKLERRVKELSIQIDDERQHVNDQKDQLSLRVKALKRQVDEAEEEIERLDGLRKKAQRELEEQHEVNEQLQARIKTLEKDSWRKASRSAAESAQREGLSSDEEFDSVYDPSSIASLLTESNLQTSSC
Experiment: affinity purification with mass spectrometry; anti-CGN antibody on protein A-sepharose, lysates of MDCK cells synchronized at telophase; eluted with 0.1 M glycine pH 2.0; compared with an IgG control

- binding: binds
Substance: Nap1, endogenous in MDCK cells (from UniProt A0A8I3NZ88 1-1128)

These are yes or no findings as the source states them, for the method shown. Binding seen in cells or lysates may run through a third protein. These calls come from enrichment with a bait or labelling near it, and not all partners need be listed.
